The test system of this data set is macrophage of atheromatous plaque. Kind of data set: Confocal fluorescence microscopy of plaque ladened aortas after texaphyrin injection. Format: in vivo, hypercholesterolemic NZW rabbits. To be noted: 10 μmol/kg over 2 consecutive days, sacrificed 24 hours after last injection, 488 nm excitation, 660 nm cut-off filter.

Consider `CC(=O)[O-].CC(=O)[O-].CCc1c(CC)c2cc3nc(cnc4cc(OCCOCCOCCOC)c(OCCOCCOCCOC)cc4ncc4nc(cc1[n-]2)C(CCCO)=C4C)C(C)=C3CCCO.O.[Lu+3]` [LuT2BET], for which the “intracellular biodistribution pattern (fluorescence) in atheromatous plaque-ladened aorta” value was “consistent with that expected for macrophage distribution” (listed as PCI-0123) and “punctate irregular fluorescent spots were distributed throughout the atheroma” (listed as lutetium texaphyrin).

The record behind these values is patent US20020115649A1, “Use of texaphyrins in macrophage-mediated disease” (Pharmacyclics, Inc., priority 1998, published 2002).
